{"source": "patent US20240092791A1", "about": "“DIHYDROFUROPYRIDINE DERIVATIVES AS RHO-KINASE INHIBITORS” (CHIESI FARMACEUTICI S.P.A., priority 2020, published 2024)", "target": "PKA (Homo sapiens, UniProt P17612)", "experiment": "In vitro inhibitory activity assay for PKA (ADP-Glo), reported as selectivity ratio vs ROCK2", "assay_type": "biochemical", "settings": "Ki value for PKA divided by Ki value of ROCK2", "procedure": "The effectiveness of compounds of the present invention to inhibit PKA activity can be determined in a 10 μl assay containing 40 mM Tris pH7.5, 20 mM MgCl2 0.1 mg/ml BSA, 50 μM DTT and 260 μM peptide substrate (kemptide) using an ADP-Glo kit (Promega). Compounds were dissolved in DMSO such that the final concentration of DMSO was 1% in the assay. All reactions/incubations are performed at 25° C. Compound and PKA enzyme (6 μl) were mixed and incubated for 30 mins. Reactions were initiated by addition of ATP (4 μl ) such that the final concentration of ATP in the assay was 10 μM. After a 30 minute incubation 10 μl of ADP-Glo Reagent was added and after a further 1 hour incubation 20 μl of Kinase Detection Buffer was added and the mixture incubated for a further 45 minutes. The luminescent signal was measured on a luminometer. […] Compounds were tested in dose-response format and the inhibition of kinase activity was calculated at each concentration of compound. To determine the IC50 (concentration of compound required to inhibit 50% of the enzyme activity) data were fit to a plot of % inhibition vs Logio compound concentration using a sigmoidal fit with a variable slope and fixing the maximum to 100% and the minimum to 0%. To determine the Ki values the Cheng-Prusoff equation was utilized (Ki=IC50/(1+[S]/Km). […]", "note": "For at least one compound, name, drawing or mass did not settle the structure."}
{"compound": "CN1CC[C@@H]1COc1ccc(NC(=O)c2cccc(CNc3ncc(-c4ccnc(N)n4)c4c3CCO4)c2)nc1", "note": "[Example 81, (R)-3-(((7-(2-aminopyrimidin-4-yl)-2,3-dihydrofuro[3,2-c]pyridin-4-yl)amino)methyl)-N-(5-((1-methylazetidin-2-yl)methoxy)pyridin-2-yl)benzamide]", "values": [{"measurement": "Ratio (PKA/ROCK2)", "result": "*** (ratio≥10)"}]}
